Record: PubChem BioAssay AID504804 (Drosophila RNAi Screening Center, 2011)
Screen: 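Knock-downs shielding fly cells from apoptosis caused by DNA damage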 (primary screen). System: Drosophila Kc cells. Reagent: long dsRNA against Drosophila genes, 0.5 µg dsRNA per well. Time to read-out: 96 h (48 h knock-down, then 48 h drug). Conditions: doxorubicin 5 µg/ml for 48 h, added 48 h after dsRNA. Read-out: 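Luminescent ATP counts per replicate, not normalised, reflecting viable cells after 48 h dsRNA knock-down followed by 48 h of 5 µg/ml doxorubicin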. Scale: raw ATP luminescence: higher = more viable cells, protection from doxorubicin. Rule for the call: 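z-score of 2 or more over plate mean in both duplicates, retained only when retests and separate dsRNAs confirm the protection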.
The screen tested about 19,000 reagents; shown is a random part of those that have a named target and a result. Of all reagents, 47 (0.25%) are marked active. 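Signals are raw, not normalised; exact z-scores behind calls not deposited; actives needed confirmation, so some wells reaching 2 SD are inactive.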 A number with no mark means an inactive call. The numbers tell different reagents against one gene apart. Names joined by + are all predicted targets of the reagent.

With Xe7, what does the deposit list?
raw ATP luminescence, replicate 1: 1.07e5; raw ATP luminescence, replicate 2: 61000

For RpL12, what was measured?
raw ATP luminescence, replicate 1: 20607; raw ATP luminescence, replicate 2: 28357

What is on record for CG18130?
raw ATP luminescence, replicate 1: 4.00e5; raw ATP luminescence, replicate 2: 3.55e5

What did the screen give for CG1138?
raw ATP luminescence, replicate 1: 52930; raw ATP luminescence, replicate 2: 58920

How did the screen score CG14564?
raw ATP luminescence, replicate 1: 78383; raw ATP luminescence, replicate 2: 63407

Which result is listed for CG12420?
raw ATP luminescence, replicate 1: 57053; raw ATP luminescence, replicate 2: 45940

With CG7785, what was measured?
raw ATP luminescence, replicate 1: 52450; raw ATP luminescence, replicate 2: 55150

What did the screen give for Cnx99A + Cnx14D?
raw ATP luminescence, replicate 1: 33700; raw ATP luminescence, replicate 2: 39150

How did the screen score FANCI?
raw ATP luminescence, replicate 1: 46470; raw ATP luminescence, replicate 2: 78213

With CG8539, how do the results read?
raw ATP luminescence, replicate 1: 37157; raw ATP luminescence, replicate 2: 34690

How did the screen score S-Lap4?
raw ATP luminescence, replicate 1: 80680; raw ATP luminescence, replicate 2: 65400

With CG4650, what does the deposit list?
raw ATP luminescence, replicate 1: 55260; raw ATP luminescence, replicate 2: 59037

For CG14221, what was measured?
raw ATP luminescence, replicate 1: 3.55e5; raw ATP luminescence, replicate 2: 3.43e5

With muc, how do the results read?
raw ATP luminescence, replicate 1: 31380; raw ATP luminescence, replicate 2: 19100

With Csk #1, how do the results read?
raw ATP luminescence, replicate 1: 1.70e5; raw ATP luminescence, replicate 2: 1.44e5

With Csk #2, how do the results read?
raw ATP luminescence, replicate 1: 53413; raw ATP luminescence, replicate 2: 21840

What is on record for Ubc4?
raw ATP luminescence, replicate 1: 44077; raw ATP luminescence, replicate 2: 36733

For CG7789, how do the results read?
SD above plate mean: 2 to 3 SD above plate mean (active)

For CG11191, what does the deposit list?
raw ATP luminescence, replicate 1: 67830; raw ATP luminescence, replicate 2: 58233

Hits (from the list above):
CG7789 → SD above plate mean = 2 to 3 SD above plate mean (active)
